# Measured values reported in article PMC4463644.
# These are yes or no findings as the source states them, for the method shown. In cells and extracts the contact can be indirect. Here binding means that the protein was enriched with, or labelled near, the bait; the list need not be complete. Where a sequence is shown, tags or fusion partners need not be part of it.
# B1: Heat shock protein 27 (protein, UniProt P02518 1-213)
# chain: MSIIPLLHLARELDHDYRTDWGHLLEDDFGFGVHAHDLFHPRRLLLPNTLGLGRRRYSPYERSHGHHNQMSRRASGGPNALLPAVGKDGFQVCMDVSQFKPNELTVKVVDNTVVVEGKHEEREDGHGMIQRHFVRKYTLPKGFDPNEVVSTVSSDGVLTLKAPPPPSKEQAKSERIVQIQQTGPAHLSVKAPAPEAGDGKAENGSGEKMETSK
# B2: Phosphorylated adapter for RNA export (PHAX) (protein, UniProt Q8SYG4 1-479)
# chain: MVTLPLSVAQTAALWAKIFSRLAIKKMMELHANDVDLEDGELSESDDDGVYTPLQRPDGAEKVASPLTTCHQIQTALEDESQSNSDSSTAESSEDGCIKKLRTESTGPDGHKKRKKRIRRTVMRRVPPTDAEMQPNRARFKKYNVWASALQEDALSENMRGCDVTRSGRDRNVENYDFSLRYRLNGENTLKRRLSNSSEDGGECSHPAHKRGRPSSRPITGNQQRGLVKSRTGHRSRRGTSSASGSSDFCEPRHILDLNEVGERDPSDVATEMASKLYEEKDELLVRVVEVLGIDVCLELYKETQRIEADGGMMIKNGIRRRTPGGVFLFLIKHHDNITQEQQKRIFSEDRQSLSKSRKQIETLMRDRKVEELKKCLSKQVTELPTLNQRKEYYMQGDEQSEDKQPGSLSNPPPSPVGAEQEHDSPEYRTHEININLVDNAELPSTSKAAAAAQGAPLKDLISYDHDFLDVNCGDMDFF
# B3: Egalitarian (protein, UniProt Q9W1K4 1-1004)
# chain: MESMEYEMARNMTLLFFLERLLDKGEPRTVHDLSCQFGNKEFTKEMRQIAGGSQSGLKKFLAQYPAIFLVDGDYVQVNAYQHHNADDGGCGGKRDYIQEAKDYFKNKMLQYGAAAEVPVRSLLGHRSQASPQVRHISGQHIKEFTDFLMKHTDTFKVTDDYVMLVGCENMTDLPARDRLHLPQSNIDTRGTQQMLDFFAQCIEVKGPLLVDQLFHLLTTNFPQDQWLRMFKTPGDLSSFLKLFADCFHIQANLVTLLQKPKLSDTHIQQAQAQTREQFNALNNNNSASIRKQEPTPGGGGVGGVSSVQQRLQSPALRTNGHTNNNNGSNGSNNNNNNNNSIACPNFKLNAPVSNVMGGQSQGFGQPKSEPSSGFDSYVPMSELKLENLCENNYPSANTCYGPINNSSQQTQQVQTQQQQQPQHATQNPAEQRLNSVNQTLKQRINTLVIRTLAENLEKDKQSLANQQGGPISPHASPVHSIANSSSNQNAGSAANNANSNSNANPNNANHSPSHSYFVGDTWKIKVLQNTTVIANVKQSVFVTDIILKYAAKNESIVVSLDCEGINLGLKGEITLIEIGTTRGEAFLFDVQSCPAMVTDGGLKTVLEHDQVIKVIHDCRNDAANLYLQFGILLRNVFDTQAAHAILQYQESGKQVYKAKYISLNSLCEQYNAPCNPIKDQLKQIYRRDQKFWAKRPLTREMMLYAAGDVLVLIHDQLFGNLARQIKPENRALFSELCTEQILMQIKPNEVKIRKKQRKVSTEVSDLKQKLAQTSKSIVLSNREIRLLRYMDLTEDEKERLKGYYKVAKKLEKMESAGNPSKDQSDSEDEQEPNENDAFPSLDSVPSDNSLSGTFSPRFSSEPPSLTESMQMLEEILQNKSMDRIARIDKLEAILTTATSLPCEQIIASNSMQEQLGSSIATTENLQIIREKSKNIKNCNCQGERSVTPIMRTTDKRVVKLVDAESQTLSTGDVVITKIFFQDEHERAKEAALLSNSPAKRVSPT
# B4: Stonewall (protein, UniProt Q24156 1-1037)
# chain: MSAASEVNLMLLRSVEKQTALYDRTDENYRKRLPSENAWDMVASEVGESVEKCKRRWRQLRNDYTRWCNADANRRRNGQRRLAYPLADELRFLDRHLNIADDMAADDDRSVSSDKDRDNNRDSEGVDHHAQASLKERASSTSKLVKEVKLASQVRKEKSSQDKRENWENPGDKQRSRKKSAEEKLDDLEESDEPEKVPELDSFLQSDNEDDECMDEEHLDDLEGFDFDLEQSNQEKELTPEKSLEKNNTDSTVSQPEFFVKQTRDPRLLIIGRKNSTSSFAESKASKSISGDPLETAMEDSGDEYGRDGEKRVTGSDTTSPTRRPRRAARASISFAGIRDLPIQKPGQAQRMTRLQRRKSMSLAAVHSVRSSTSPVKMTPVPRSQPINKPPSGPVQITKISHRDDIFPRPAVPSGVVNINQNQLKTQQQQKTLIFPTTDEAIANPHGSGPPQRRSVGRPPKKLPMVQRIVAPETQTKPQSPINTKVLTIGKPTSSVASGNINNIAIKSNVVTSISSSTATTNTITKGTSNNSIKTTENVNVISYSKNSSSTSSSSKATTGASGAVITNIPTTTTAGTSVPVGKSITQLKMTERGTQTGVQNPFSDNYFLEMIKPQMQEMNPRQKMHFKKKVFQALMETFDDATDFPTSKELQHFNINTPSGFEHITDPELRLVRELVSMVSAAKVTLIRPPGEATAIATASRSGIAPEVQRGPRTNMTRQVIQRVYKPGTGQEIAPTSPAGGLDKRLFRLAAMGGKPNGNLSATQEILRKDSVDSNHSVVKVANHAPTGSPKGAAVVAAIRPQGSLINSFFGQGNGPTTAKGAASENIRAMSRRYSVCGSSNPPNAQNASQGSANGSTINSNASAMEASMLKRRLIAAGHGMVPPTQRPRYSAVGASQMTTASQGSSLLVRKSVGCVPAYQKQISPNGGASLLQKTPQIASVQGSAFNDFAQPKPAATASVNGEESSPTSALKRSLVVANTKTSFQDLLQQASQTVQRNKIESSETAATIAADDFSLDNLKREPVDPAEDHNDILGV
# B5: Voltage-dependent anion-selective channel (protein, UniProt Q94920 1-282)
# chain: MAPPSYSDLGKQARDIFSKGYNFGLWKLDLKTKTSSGIEFNTAGHSNQESGKVFGSLETKYKVKDYGLTLTEKWNTDNTLFTEVAVQDQLLEGLKLSLEGNFAPQSGNKNGKFKVAYGHENVKADSDVNIDLKGPLINASAVLGYQGWLAGYQTAFDTQQSKLTTNNFALGYTTKDFVLHTAVNDGQEFSGSIFQRTSDKLDVGVQLSWASGTSNTKFAIGAKYQLDDDASVRAKVNNASQVGLGYQQKLRDGVTLTLSTLVDGKNFNAGGHKIGVGLELEA
# B6: Vitellogenin-2 (protein, UniProt P02844 20-442)
# chain: NPQSGNRSGRRSNSLDNVEQPSNWVNPREVEELPNLKEVTLKKLQEMSLEEGATLLDKLYHLSQFNHVFKPDYTPEPSQIRGYIVGERGQKIEFNLNTLVEKVKRQQKFGDDEVTIFIQGLPETNTQVQKATRKLVQAYQQRYNLQPYETTDYSNEEQSQRSSSEEQQTQRRKQNGEQDDTKTGDLIVIQLGNAIEDFEQYATLNIERLGEIIGNRLVELTNTVNVPQEIIHLIGSGPAAHVAGVAGRQFTRQTGHKLRRITALDPTKIYGKPEERLTGLARGDADFVDAIHTSAYGMGTSQRLANVDFFPNGPSTGVPGADNVVEATMRATRYFAESVRPGNERNFPSVAASSYQEYKQNKGYGKRGYMGIATDFDLQGDYILQVNSKSPFGRSTPAQKQTGYHQVHQPWRQSSSNQGSRRQ
# B7: Mind-meld, isoform C (protein, UniProt Q9VXL1 1-1482)
# chain: MWINIANLILIIAQLCVFVTSAGEADYTLDDSFWNEESPVGEVERLLKEYRQNQELVRRIGGHYYQIIYPVQLRHHEKMGISTREVSLPKPGQRPRPHDDSGFNRGRTKKHFHRTSLLIKAFNHKFRLDLELNSQLLSPNIQQKHYHVGGYLVDGNRHDIEHCYYHGTVKDYPGASAAFHTCNGVSGVIHIGNETFVIHPFYGGDLSKHPHVIFEARTKANKGCANSGNLDSWRLSRRTKHLSAGVAGVVEEILQAGVGRNKRDVREATKYIETAIIVDKAMFDKRNGSTRAEVIHDAIQVANIADLYFRTLNTRVSVVYIETWGKNQAVIDGSKDISKAISNFNDYTSRNLFQIERDTTQLLTGETFAGGEAGMAVPETVCTPRAVGISVDVNVYEPHLLAGTMAHMIGHNIGMGHDDGREECFCRDWHGCIMAQSIVGQENVQPYKFSECSKKDYIDALRTGHGLCLLNKPNEIELRRNCGNKVVEEDEECDCGTFEECALDQCCDGITCKLKSEAQCASGACCDQCRLRPKDYICRDSNNECDLPEYCDGEIGQCPSDVFKKNGSPCGLSKTGISGYCFQGYCPTLSLQCEAIWGYGGSAADRQCYEQFNSKGSINGHCGRDANEHYIKCEPENVQCGTLQCKDGERQPVNDGIDQLYSRTIISIKGQEFECKATSGQVGSNSYPEHGLVKDGTPCGDNLICLNQTCVSLFPHVDQTKCPANSQGLECSEHGVCTNTNRCFCDMGWGGNDCSSVVLLTTALPTEALPTPENTIKMEKKETPYENYHGSNTVFLVGVLMSVVGFVFITFTLMALCYRRKTTTLKYDPPYSKKPIAKSYGGAATAPNHHSVEEVSLDGSSKLVYANQTGFRDKGIHGRRYTTCGEDDQSHAEKGILKKHGYGLVHGEQLKDKWGDDNQSDNLELITQDGTLASTSGGAAASEVERTLKSLNGYHEDILEALRNAATHRGTGTGNTPVGSGSLSEEMLRKTLQDCNNSQLGYSAEQYKRNIGSKSSSRENICDNAAVHAIILDGSGGGLGGMGLGSSVGAGGGSTSMSGGMPGHGGTMLHHHRSQHQLHQPSTVALQPQQLDDDDAPSTGPLRIRNLEDLIRQLEHHSSRHMSPSGSEDIRMSETEADRHYRLESSAACSESSQGSNQQIPQSQKTATIHASYSRSCRPRSDEESRFTFGGRYRQPASSGRHAPHQSHSPHAFGHHTHHSHAHGHATHGPHSSHHSSHTHLQQEDEGIYETADHHERQVVDARLDCHETPDSESDDFIQAQQQLARWASEDVVSVVVLDQPPSGTMSDSQPYIDVGPISGAIAQQQHPHQQQQQQQQQQHPHQHHGDHHQSSAAAAGSGSGVAAATSVANSSIMALPIVPNGISVSQRDYYPSPPSTETESSGSVIQPPIRRGLQSAAAAAAAADTAALSQHQQQLQLLQLPIYQQHPHQHHHPQQSGDTSSSNNSQSEQIIENGCYPEYKH
# B8: Elongation factor 1-gamma (protein, UniProt Q9NJH0 1-431)
# chain: MVKGTLYTYPENFRAYKALIAAQYSGAQVKVADNFKFGETNKSAEFLKKFPGGKVPAFETAEGQYLSESNAIAYLLANEQLRGGKCPFVQAQVQQWISFADNEIVPASCAWVFPLLGILPQQKNSTAKQEAEAVLQQLNQKLQDATFLAGERITLADIVVFSSLLHLYEYVLEPSVRSAFGNVNRWFVTILNQKQVQAVVKDYKLCEKALVFDPKKYAEFQAKTGAAKPQQQAQQQKQEKKPKEKKEAPKKAAEPAEELDAADEALAAEPKSKDPFDALPKGTFNFDDFKRVYSNEDEAKSIPYFFDKFDAENYSIWFGEYKYNEELSKVFMSCNLITGMFQRLDKMRKAAFASVCLFGEDGNSTISGIWVWRGQDLAFTLSPDWQIDYEVYDWKKLDAKSEETKKLVTQYFSWSGTDKDGRKFNQGKIFK
# B9: Ribosome biogenesis protein WDR12 homolog (protein, UniProt Q9VKQ3 1-420)
# chain: MDVDNGEGQVQVHLKTKQEHYAVPDVPYAIDGTVTTVELNTFVNALLRQKDGSSDTDFDFLVFDEYLRGRLCDHLREKAISFEDAIEIEYVERFPAPEPQDCLLHDDWVSAVKARGKWILSGCYDNTLNLWTNKGKHILTISGHTAPIKAVDWISLDEETGRFVSTSQDQTAMLWQWNVGSNSVECVSVCKGHERGVDSVSVSPDGLRFATGSWDTMLKVWSAELDDAVEGSSKRMKESGVRTPKITLQGHRESVSAVQWMDATTLLTGSWDHTLKVWDLSLEGIKTEISTNKSIFDASYSKLNRLILTASADKNLRLYDPRTNQGSVVRNTYLGHNAWVQTVMWSTTEEFLFVSGAYDNQNKLWDCRSPKAPLYDLLGHGEKVLDIDWSNPKYIVSGGVDNTVRVFKSRKALAEEAETK
# Target: SNAMA (D. melanogaster (endogenous in 0-6 h embryos))
# Assay: affinity purification with mass spectrometry; co-immunoprecipitation from 1 mg crude extract of 0-6 h embryos with 15 ug chicken anti-SNAMA DCM antibody, captured on chicken IgY precipitating resin; SDS-PAGE bands absent from the control with pre-adsorbed pre-immune serum identified by LC-MS/MS
row,binding,Binder
1,binds,B1
2,binds,B2
3,binds,B3
4,binds,B4
5,binds,B5
6,binds,B6
7,binds,B7
8,binds,B8
9,binds,B9
